PubChem BioAssay AID1259254, NCATS, 2017
Assay: 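Gene knock-downs that lead to re-replication, shown by excess G2 DNA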 (primary screen). System: human HCT116 colorectal cancer cells. Reagents: single siRNA against human genes. Timing: 3 days. Detection: 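Imaged Hoechst DNA stain sorts each cell into a cycle phase by DNA amount; per plate, G2 fraction set to 0% for non-targeting and 100% for GMNN siRNA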. Reading the numbers: G2 robust z-score: higher = more G2 cells, more excess DNA replication. Rule for the call: 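Active siRNAs have a G2 robust z of 5 or more median absolute deviations over the median, which in these data means about 38% or higher of GMNN control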.
In all, the deposit lists about 59,000 reagents; shown is an unselected part. Of all reagents, about 1,550 (2.6%) were called active. 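G2 share is only a proxy for re-replication; each gene was hit by three separate siRNAs, and active genes were retested.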 Entries without a mark were called inactive. Reagents against one gene are numbered here. Not all columns of the deposit are shown. Not stated in the record: the amount of reagent.

G2 robust z-score, by gene and reagent
LIME1: #1 1.39; #2 0.221; #3 -0.169
CTRC: #1 -0.453; #2 0.41; #3 -0.525
RPL35P1: #1 1.4; #2 2.51; #3 -0.64
ANTXR1: #1 -0.45; #2 -0.204; #3 -1.01
MEIKIN: #1 0.698; #2 -0.6; #3 2.75

In a second layout: 2 of the entries above
| gene | reagent no. | G2 robust z-score |
| --- | --- | --- |
| MEIKIN | 1 | 0.698 |
| MEIKIN | 2 | -0.6 |

Continued.
G2 robust z-score, by gene and reagent
PI16: #1 1.03; #2 -0.206; #3 0.457
SLC49A4: #1 2.95; #2 -0.221; #3 2.39
SCAF11: #1 5.1 (active); #2 -0.0308; #3 5.23 (active)
UQCRH: #1 -0.393; #2 -0.639; #3 0.289
TENT4A: #1 -0.722; #2 0.9; #3 -0.21
